These are yes or no findings as the source states them, for the method shown.

The values below come from patent US20150218261A1.

Test [1] addresses human platelet factor 4 (PF-4) in HPF4-spiked human plasma (human). Nature of the test: sandwich-ELISA: antibody coated on the plate, dilution series of HPF4-spiked human plasma, bound PF-4 detected (OD450nm).
For test [2] the target is unchanged. In words: aligned sandwich-ELISA: dilution series of antibody captured by immobilized anti-IgG, then 1:10 HPF4-spiked human plasma, bound PF-4 detected (OD450nm).

B1: humanized monoclonal anti-Aβ antibody 4D10hum#2 (antibody, human IgG1, kappa, V domains shown)
VH: EVQLQESGPGLVKPSETLSLTCTVSGFSLSSYGVHWVRQPPGKGLEWLGVIWRGGRIDYNAAFMSRLTISKDTSKSQVSLKLSSVTAADTAVYYCARNSDVWGQGTTVTVSS
VL: DVVMTQTPLSLPVTPGQPASISCKSSQSLLDIDGKTYLNWLLQKPGQSPQRLIYLVSKLDSGVPDRFSGSGSGTDFTLKISRVEAEDVGVYYCWQGTHFPYTFGQGTKLEIKR
In the case of B1, the figures for the binding result in test [1] and in test [2] were “no binding (tested: plasma dilution 1:3.16)” and “no binding (tested: 10000 ng/mL)”, respectively.
